This assay is described as follows: IkB Signaling. To be noted: ABC-DLBCL IkBa-CBG/CBR dual luciferase ratio (green luciferase fused to IkBa over red control in OCI-Ly3 lymphoma cells), 4 h. The source says: NIH Molecular Libraries Screening Centers Network [MLSCN]
NIH Chemical Genomics Center [NCGC]
Nuclear factor kappa-B (NF-kappa-B) plays an important role in normal B cell development and survival. Diffuse large B cell lymphoma (DLBCL) is the most commonly observed type of non-Hodgkin's lymphoma. Gene expression analysis has identified an activated B cell-like subtype of DLBCL (ABC-DLBCL) which expresses known NF-kappa-B target genes. […] However, targets upstream of IKK have been largely unexplored and so nodes upstream of IKK in the NF-kappa-B pathway remain untested due to the lack of chemical probes.
A cell-sensor assay for I-kappa-B-alpha stabilization was developed with NIH investigator Dr. R. Eric Davis in Dr. Louis M. Staudt's laboratory. The assay uses green (CBG68) and red (CBR) emitting beetle luciferases [Chroma-Glo(TM) developed by Promega Corp.] where the green luciferase is fused to I-kappa-B-alpha and the red luciferase is present in its native state. Both luciferase genes are stably present in the OCI-Ly3 human ABC DLBCL cell line, but their expression is under the control of tetracycline-inducible promoters. Following the addition of doxycycline to induce expression of the luciferases, the green luminescence in control cultures rises only slowly because the CBG fusion partner I-kappa-B-alpha is targeted by IKK activity for rapid degradation. In contrast, green luminescence rises rapidly in the presence of proteasome inhibitors or IKK inhibitors. The rise in red luminescence of CBR is not affected by proteasome or IKK inhibitors, and serves as normalization for cell number and nonspecific effects. Compounds were screened as a concentration-titration series that ranged from 57 uM to 0.7 nM.
NCGC Assay Protocol Summary:
Cells were seeded in 1536-well plates at 5000 cells/3ul in IMDM medium containing 0.5% FBS, w/o phenol red, L-glutamine, 25 mM HEPES, 3 mg/ml sodium bicarbonate. After centrifugation for 1 min. at 1000 rpm, 23 nl of compounds or DMSO were delivered to each well using a pin tool. Then 1ul 80ng/ml doxycycline was dispensed into white solid 1536-well plates and the plates were incubated at 37C/5% C02 in a cell incubator for 4 hrs. Then 4 ul Chroma-Glo luminescent substrate mix (Promega) was added to each well. The plate was incubated at R.T. for 10-15 min. The plates were measured on a ViewLux plate reader for green luminescence (540/20 nm filter) and red luminescence (618/8 nm filter). The green and red luminescent signals were corrected for red and green luminescence filter overlap using previously determined filter calibration constants (determined using the procedure outlined in the Promega Technical Manual). The %Activity was determined from the ratio of corrected green/red luminescent values. Green luminescent and ratio %Activity was determined by normalizing to the difference in signal between basal cells (0% Activity) and cells incubated with 10 uM of the proteasome inhibitor MG-132 (100% Activity). Red luminescent %Activity was normalized to the difference between red luminesence in basal cells (0%Activity) and zero luminescence (-100% Activity).
Concentration-response curves were fitted to the signals arising from the green luminescence (I-kappa-B-alpha-luciferase fusion; IkB-luc) and the red luminescence (unfused luciferase; luc) as well as the calculated ratio. The concentration-effect curves were then classified based on curve quality (r2), response magnitude and degree of measured activity. Compounds were then categorized based on their concentration-response curves for all three datasets (Ikb-luc, luc and ratio).
Keywords: IKK, I-kappa-B, IkB, IkBa, cytotoxicity, luminescence, MLSMR, MLSCN, NIH Roadmap, qHTS, NCGC

The mark [1] stands for this setting: measured here: control luc red channel unless noted.
[2] abbreviates: measured here: IkB-luc green channel.
The mark [3] stands for this setting: measured here: control luc red channel.

The list shows a part of the results. The main result of the screen is listed elsewhere. These columns were measured beside it and carry no call. The list favours compounds with an active or inconclusive main result. The note in brackets gives the kind of curve behind each potency; many fits are weak.

For orientation: AC50 means the concentration at which the activity in the assay is half-maximal. For `CCOC(=O)C1=C(C)NC(SCc2cc(=O)[nH][nH]2)=C(C#N)C1c1cccs1` (stereo not drawn), the AC50 under setting [1] is 15.8 µM [falling, partial curve].

Consider `O[C@H](CN1CCN(c2cccc(Cl)c2)CC1)C(c1ccccc1)c1ccccc1`, for which the AC50 under setting [1] was 25.1 µM [falling, partial curve]. In the case of `CCOc1ccc(-n2cc(C(=O)Nc3ccccc3OCC)c3cc(OC)c(OC)cc3c2=O)cc1`, under setting [1], the AC50 was 25.1 µM [falling, partial curve]. Still for that read-out and setting: under `CCOC(=O)c1c(NC(=O)CS(=O)(=O)c2ccc(C)cc2)sc2c1CCC(C)C2` (stereo not drawn) stands 25.1 µM [falling, partial curve, poor fit]; under `CC1CCN(C(=O)Cn2cc(SCc3cccc(F)c3)c3ccccc32)CC1`, 10 µM [falling, partial curve].

As to `CC1CCN(C(=O)Cn2cc(SCc3ccccc3)c3ccccc32)CC1`, the AC50 under setting [1] was 12.6 µM [falling, partial curve]. Same read-out and setting: under `CCCc1nnc(N2C(=O)c3oc4ccc(F)cc4c(=O)c3C2c2ccc(C(=O)OC)cc2)s1` (stereo not drawn) stands 25.1 µM [falling, single point]; under `Cc1ccc(-c2cc(C(=O)Nc3c(C(=O)c4ccccc4)oc4ccccc34)no2)cc1F`, 20 µM [falling, single point]. As for `Cc1ccc(Cc2nc3ccccc3nc2SCC(=O)Nc2cccc(C(F)(F)F)c2)cc1`, the concentration at half-maximal activity (AC50) under setting [1] was 31.6 µM [falling, partial curve, poor fit]. The same measure, in the same setting: under `CCNC(=O)NC(=O)COc1ccccc1C#N` stands 12.6 µM [falling, partial curve]; under `O=c1c2ccccc2nnn1CSc1nnc(COc2ccc(Cl)cc2)n1Cc1ccco1`, 7.94 µM [falling, partial curve]; under `Cc1ccc(-n2ncc3c(NC4CCCCC4)ncnc32)cc1`, 1.58 µM [falling, partial curve].

Turning to `Cc1ccc(C)c(NS(=O)(=O)c2ccc(NC(=O)c3ccco3)cc2)c1`, under setting [1], the AC50 was 10 µM [rising, partial curve, poor fit] [measured here: IkB-luc green channel]. Take `COc1ccccc1C(=O)N1CCN(c2nc3cc(C)c(C)cc3cc2C#N)CC1`: the AC50 is 39.8 µM [falling, single point] under setting [2] and 15.8 µM [falling, partial curve] under setting [3]. On to `CC(C)(C)c1ccc(S(=O)(=O)NCc2nc3cccnc3n2Cc2ccccc2Cl)cc1`, for which the AC50 under setting [1] is 39.8 µM [falling, single point]. With `Cc1nn(CC(=O)NCCc2ccccc2Cl)c(=O)c2nn(-c3ccccc3)c(C)c12`, the AC50 under setting [1] was 5.01 µM [rising, partial curve]. Consider `O=S(=O)(c1ccccc1)N1CCC(c2ccncc2)CC1`, for which, under setting [1], the AC50 was 39.8 µM [falling, single point].

As to `CCOc1ccc(CNC(=O)Cn2nc(C)c3nn(-c4ccc(Cl)cc4)c(C)c3c2=O)cc1OC`, under setting [1], the AC50 was 25.1 µM [falling, partial curve].

Turning to `CCC(C)NC(=O)c1sc2nc(C)c(C(=O)Nc3ccc(C)cc3C)c(-c3ccc(Cl)cc3)c2c1N` (stereo not drawn), the AC50 under setting [1] is 5.01 µM [falling, full curve].

As to `O=C(CSc1ccccc1)NCc1ccc2c(c1)CCN2C(=O)c1ccc(F)cc1`, the AC50 under setting [1] is 1.26 µM [falling, partial curve]. As for `Cn1c(SCc2cnc(-c3ccccc3)s2)nnc1C1COc2ccccc2O1` (stereo not drawn), the AC50 under setting [1] was 25.1 µM [falling, single point]. Take `O=C(Cc1ccccc1)N(Cc1cccnc1)c1nc2ccc(F)cc2s1`: under setting [1], the AC50 is 39.8 µM [falling, single point].

Take `CCOc1cccc(NC(=O)Cc2cccs2)c1`: under setting [1], the AC50 was 25.1 µM [rising, partial curve, poor fit]. With `O=C(Nc1cccc2cccnc12)c1ccc(F)cc1`, the AC50 under setting [1] is 31.6 µM [falling, partial curve, poor fit]. As to `O=C(COc1ccc(S(=O)(=O)NC2CCCCC2)cc1)Nc1ccc2c(c1)OCCO2`, the AC50 under setting [1] was 15.8 µM [falling, partial curve].

On to `Cc1ccccc1-c1nnc(C2CCN(S(=O)(=O)c3ccc(Cl)cc3)CC2)o1`, for which, under setting [1], the AC50 was 20 µM [falling, partial curve]. For the compound `Cc1nc(N2CCCC2)c2c(C(=O)N3CCN(c4cccc(C)c4C)CC3)c(C)oc2n1`, the AC50 under setting [1] was 25.1 µM [falling, single point]. With `Cc1c(C(=O)NCCC2=CCCCC2)oc2ccc(S(=O)(=O)N3CCC4(CC3)OCCO4)cc12`, under setting [1], the AC50 was 6.31 µM [falling, partial curve]. Consider `O=C(CSc1nc(-c2ccccc2)[nH]c1-c1ccccc1)Nc1ccc2c(c1)OCCO2`, for which, under setting [1], the AC50 was 10 µM [falling, partial curve]. With `O=C(Nc1cccnc1)c1cc(-c2ccco2)on1`, under setting [1], the AC50 is 6.31 µM [falling, partial curve]. Same read-out and setting: under `O=C(CN1CCN(c2ncccn2)CC1)Nc1ccccc1-n1cccc1` stands 25.1 µM [falling, single point].

Consider `CCCSCCCNC(=O)c1ccc2c(c1)nc1n2CCCCC1`, for which the AC50 under setting [1] is 15.8 µM [falling, partial curve].

For `CC(C)c1cc(-c2nc(-c3ccccc3)no2)n[nH]1`, the AC50 under setting [1] is 0.0158 µM [falling, full curve]. Still for that read-out and setting: under `COc1ccc(S(=O)(=O)N2CCN(Cc3ccc4c(c3)OCO4)CC2)cc1OC` stands 31.6 µM [falling, single point].

With `CN(CC(=O)Nc1ccccc1Cl)S(=O)(=O)c1ccc(C(=O)N2CCOCC2)s1`, the AC50 under setting [1] is 0.794 µM [falling, full curve, poor fit].

As for `Cc1cccc(-c2nnc3n2N=C(c2ccccc2Br)CS3)c1`, the AC50 under setting [1] is 20 µM [falling, single point]. Take `COc1ccc(-c2noc(CN(C)S(=O)(=O)c3ccccc3)n2)cc1OC`: the AC50 under setting [1] is 398 nM [falling, full curve] [measured here: IkB-luc green channel]. As for `COc1cc(Cl)c(NC(=O)C2CCN(S(=O)(=O)c3c(C)noc3/C=C/c3ccccc3F)CC2)c(OC)c1`, the AC50 under setting [1] was 7.94 µM [falling, full curve, poor fit]. With `O=C(CCCn1c(=O)[nH]c2ccccc2c1=O)NCc1ccccc1Cl`, under setting [1], the AC50 was 6.31 µM [rising, partial curve].

For the compound `COc1ccc(OC)c(NC(=O)Cn2cc(C(=O)c3ccco3)c3ccccc32)c1`, under setting [1], the AC50 is 12.6 µM [falling, partial curve]. On the same count and under the same terms, under `Cc1ccc(-c2nnc(Nc3ccc(Br)cc3)c3ccccc23)cc1S(=O)(=O)N1CCCCC1` stands 0.631 µM [falling, full curve].

For `CCC(=O)NC1CC(=O)N(c2ccc3c(c2)OCCO3)C1` (stereo not drawn), the AC50 under setting [1] was 7.94 µM [rising, single point].

As for `COc1ccccc1NC(=O)Cn1c(=O)n(Cc2ccco2)c(=O)c2oc3ccccc3c21`, the AC50 under setting [1] is 2.51 µM [falling, full curve, poor fit]. On the same count and under the same terms, under `O=C(CN1C(=O)C(c2ccc(F)cc2)=NC12CCCCCC2)Nc1ccc(F)c(Cl)c1` stands 15.8 µM [falling, partial curve]. For the compound `COc1cc(-c2cc(OC)c3c(C)oc(C)c3c(=O)c2)ccc1OC(=O)c1ccccc1C`, the AC50 under setting [1] was 10 µM [falling, partial curve].

Regarding `Cc1cc(C)c2c(-n3cccc3)c(C(=O)NCCc3ccc(Cl)cc3)sc2n1`, the AC50 under setting [1] was 20 µM [rising, partial curve, poor fit]. The same measure, in the same setting: under `COc1ccc(-c2cc(C(=O)Nc3c(Cl)cccc3Cl)no2)cc1OC` stands 25.1 µM [falling, partial curve]; under `CCN(CCCNC(=O)c1cc2c(=O)n(CC)c3ccccc3c2s1)c1cccc(C)c1`, 10 µM [falling, partial curve].

As to `O=C(Nc1ccccn1)c1ccc(NC(=O)c2ccco2)cc1`, under setting [1], the AC50 was 31.6 µM [falling, single point]. Same read-out and setting: under `COc1ccc2c(c1)c(=O)c(S(=O)(=O)c1ccc(C)c(C)c1)cn2CC(=O)Nc1ccccc1` stands 6.31 µM [falling, partial curve]; under `CCc1ccc(N2CCn3c2nc2c3c(=O)n(Cc3ccc(F)cc3)c(=O)n2C)cc1`, 15.8 µM [falling, partial curve]; under `COc1ccc(Cl)cc1NC(=O)CN(c1cc(C)cc(C)c1)S(=O)(=O)c1c(C)n[nH]c1C`, 10 µM [falling, partial curve]. On to `Cc1cccc(NC(=O)Nc2ccc(C#N)cc2)n1`, for which the AC50 is, setting by setting: under setting [2], 0.794 µM [falling, full curve, poor fit]; under setting [3], 0.631 µM [falling, full curve, poor fit]. As for `COc1cc(-c2noc(C3CC(=O)N(c4ccc5c(c4)OCCO5)C3)n2)cc(OC)c1OC` (stereo not drawn), the AC50 under setting [1] is 15.8 µM [falling, partial curve].

Regarding `Cc1ccc(CNc2ccc(-c3nc(-c4ccco4)no3)cc2[N+](=O)[O-])cc1`, the AC50 under setting [1] is 15.8 µM [falling, partial curve]. As to `CCOc1ccc(-c2nc3c(C#N)c[nH]n3c2NC2CCCC2)cc1`, the AC50 under setting [1] was 31.6 µM [falling, single point]. With `COc1ccc(NS(=O)(=O)c2ccc(NC(=O)N3CCCC3)cc2)cc1`, the AC50 under setting [1] is 1.26 µM [rising, full curve]. In the case of `Cc1ccc(-c2cn3c(n2)sc2cc(C(=O)NCCCc4ccccc4)ccc23)cc1`, under setting [1], the AC50 is 12.6 µM [falling, partial curve]. The same measure, in the same setting: under `CCc1ccccc1NC(=O)C1CCCN(S(=O)(=O)c2cccc3nsnc23)C1` (stereo not drawn) stands 12.6 µM [falling, partial curve]; under `COc1ccc(CCNC(=O)CCc2c(C)nc3c(c(C)nn3-c3ccc(C)cc3)c2C)c(OC)c1`, 5.01 µM [falling, full curve]. `CCOc1ccc(N(CC(=O)Nc2ccccc2C)S(=O)(=O)c2c(C)noc2C)cc1`: under setting [1], the AC50 is 3.16 µM [rising, full curve] [measured here: IkB-luc green channel].

Source of the values: PubChem BioAssay AID445 (National Center for Advancing Translational Sciences (NCATS), 2006).
